Source: US5084142A, “Separation of tertiary butyl alcohol from water by azeotropic or extractive distillation” (priority 1991, dated 1992)
At least one structure is not confirmed: it was looked up by name or label, or the drawing left a doubt.

Test: Extractive agents evaluated in vapor-liquid equilibrium still (separating water from t-butanol)
Assay type: physicochemical
Settings: extractive agent, water as overhead

SMILES: CCCOCC(C)O (stereo not shown) [Propoxypropanol]
- Relative Volatility: 1.41
